Measured values: patent publication US11787816B2, “Chlorin compound, and preparation and use thereof” (Southwest Jiaotong University, priority 2021, dated 2023)

Columns and labels:
Type in all cases: cell-based
[1] = tested on: Human cervical cancer cells (Hela line); experiment: Enrichment in tumor cells (flow cytometry fluorescence), Hela; settings: 10 μg/mL
[2] = tested on: murine mammary carcinoma cells (4T1 line); experiment: Enrichment in tumor cells (flow cytometry fluorescence), 4T1; settings: 4T1 cells, 10 μg/mL
[3] = tested on: human hepatocellular carcinoma cells (huh-7 line); experiment: Enrichment in tumor cells (flow cytometry fluorescence), huh-7; settings: huh-7 cells, 10 μg/mL

| Substance | incubation time after which the concentration in the cells was basically stable [1] | incubation time after which the concentration in the cells was basically stable [2] | incubation time after which the concentration in the cells was basically stable [3] |
| --- | --- | --- | --- |
| 3-hexoxymethyl-3-devinyl-chlorin e4 disodium salt [CEFO] | 10 h | 8 h | 10 h |
| 3-n-hexylaminomethyl-3-devinyl-chlorin e4 disodium salt [CEFN] | 10 h | 8 h | 10 h |
